PubChem BioAssay AID1259308 – NCATS, 2017
The whole screen tested about 59,000 reagents; this is an unselected part. About 1,510 of all reagents (2.6%) count as active. 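Calls use total luciferase alone and ignore viability, so some active siRNAs may act by altering cell number.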 The numbers tell different reagents against one gene apart. Further read-outs or replicates are left out here. Reagent sequences are not shown.

Aim: 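Candidate targets for better recombinant protein yield in mammalian cells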 (primary screen)
Cell system: human HEK293 embryonic kidney cells stably expressing firefly luciferase (HEK-CMV-Luc2-Hygro)
Reagents: single siRNA against human genes, 0.8 pmol siRNA per well
Timing: 72 h
Read-out: 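Reporter luminescence and viable-cell signal on separate replicate plates, given as percent of non-targeting control and median/MAD z-scores, plus per-cell luciferase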
Scale: total luciferase, z-score: higher = more reporter protein produced
Hit rule: 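Active when the median/MAD z-score for overall luciferase is greater than 3; a gene was taken forward for validation with new siRNAs if at least two of its three siRNAs passed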
Calls: active = raised luciferase; inactive = no rise

For FXYD5 #1, what was measured?
total luciferase, z-score: -0.495; activity call: inactive

With FXYD5 #2, how do the results read?
total luciferase, z-score: 0.616; activity call: inactive

With FXYD5 #3, what does the deposit list?
total luciferase, z-score: 4.2; activity call: active

What did the screen give for STAM #1?
total luciferase, z-score: -0.396; activity call: inactive

What is on record for STAM #2?
total luciferase, z-score: -0.148; activity call: inactive

What is on record for STAM #3?
total luciferase, z-score: -0.75; activity call: inactive

With PRKCZ #1, what does the deposit list?
total luciferase, z-score: -0.715; activity call: inactive

What is on record for PRKCZ #2?
total luciferase, z-score: 0.0643; activity call: inactive

Which result is listed for PRKCZ #3?
total luciferase, z-score: 0.546; activity call: inactive

With LINC01346 #1, what was measured?
total luciferase, z-score: 0.642; activity call: inactive

With LINC01346 #2, what was measured?
total luciferase, z-score: 0.91; activity call: inactive

What did the screen give for LINC01346 #3?
total luciferase, z-score: -0.419; activity call: inactive

For ATP9A #1, what was measured?
total luciferase, z-score: -0.22; activity call: inactive

What is on record for ATP9A #2?
total luciferase, z-score: -0.406; activity call: inactive

With ATP9A #3, what was measured?
total luciferase, z-score: 0.712; activity call: inactive

For DNAJA1P4 #1, what was measured?
total luciferase, z-score: -0.528; activity call: inactive

Which result is listed for DNAJA1P4 #2?
total luciferase, z-score: -0.0608; activity call: inactive

Which result is listed for DNAJA1P4 #3?
total luciferase, z-score: -0.404; activity call: inactive

For SBNO1 #1, how do the results read?
total luciferase, z-score: -0.057; activity call: inactive

What is on record for SBNO1 #2?
total luciferase, z-score: 2.3; activity call: inactive

With SBNO1 #3, what was measured?
total luciferase, z-score: 1.33; activity call: inactive

With NADSYN1 #1, how do the results read?
total luciferase, z-score: 0.396; activity call: inactive

For NADSYN1 #2, what was measured?
total luciferase, z-score: -0.532; activity call: inactive

What did the screen give for NADSYN1 #3?
total luciferase, z-score: 0.0157; activity call: inactive

How did the screen score CES1 #1?
total luciferase, z-score: 0.383; activity call: inactive

With CES1 #2, how do the results read?
total luciferase, z-score: 0.166; activity call: inactive

For CES1 #3, what does the deposit list?
total luciferase, z-score: -0.758; activity call: inactive

Which result is listed for STRN3 #1?
total luciferase, z-score: -0.687; activity call: inactive

How did the screen score STRN3 #2?
total luciferase, z-score: -1.78; activity call: inactive

What is on record for STRN3 #3?
total luciferase, z-score: 0.298; activity call: inactive

What is on record for SIGLECL1 #1?
total luciferase, z-score: -0.384; activity call: inactive

For SIGLECL1 #2, what was measured?
total luciferase, z-score: -1.91; activity call: inactive

With SIGLECL1 #3, how do the results read?
total luciferase, z-score: 0.415; activity call: inactive

Reprinted from above for reference:
DNAJA1P4 #1 — total luciferase, z-score: -0.528; activity call: inactive
DNAJA1P4 #2 — total luciferase, z-score: -0.0608; activity call: inactive
DNAJA1P4 #3 — total luciferase, z-score: -0.404; activity call: inactive
